For the series, the system named is E. coli K1 strain RS218. In words: Mouse model of experimental hematogenous E. coli meningitis (cPLA2α-/- and wild type BALB/c mice). It counts as in vivo. The conditions noted are these: i.v. 1.2 μg/mouse in 50 μl PBS 30 mins before bacterial injection. The procedure:
cPLA2α−/− and wild type mice, either male or female, […] that had been backcrossed on the BALB/c strain for >10 generations were used^14. All procedures and handling techniques were approved by The Johns Hopkins Animal Care and Use Committee.
Each mouse received 1×10^7 CFU of E. coli K1 strain RS218 in 100 μl PBS via the tail vein. One hour later, mouse chest was cut open, and blood from right ventricle was collected and plated for bacteria counts, which were expressed as CFUs/ml of blood. The mouse was then perfused with a mammalian Ringer's solution by transcardiac perfusion through a 23-gauge needle inserted into the left ventricle of the heart under the perfusion pressure of about 100 mmHg. The perfusate exited through a cut in the right atrium. […] The brains were removed, weighed and homogenized in 2 ml RPMI followed by plating for bacterial counts, which were expressed as CFUs/gm. Since E. coli K1 penetration into the brain is shown to depend on the magnitude of bacteremia^5,7, bacterial penetration into the brain was also expressed as [(brain CFUs per gm)/(blood CFUs per ml)]×100. Kidneys and spleens were also removed, homogenized and plated for determination of bacterial counts, which were expressed as CFUs/gm. […]

“Also recorded” adds a separate entry of the source.

Regarding `CCCCC/C=C\C/C=C\C/C=C\C/C=C\CCCC(=O)O` [arachidonic acid, Arachidonic acid], the “bacterial counts in the blood, spleens and kidneys” value was “did not affect the bacterial counts in the blood, spleens and kidneys; also recorded: did not affect the bacterial counts in the blood, kidney and spleen”.

For the origin of these results see patent US8980917B2, “Methods for treating or preventing brain infections” (The Johns Hopkins University, priority 2008, dated 2015).
